Experimental findings from patent US20070021451A1, “Method for preventing or treating neurologic damage after spinal cord injury” (HAMAMATSU UNIVERSITY SCHOOL OF MEDICINE, priority 2005, published 2007) are described below.

A short description of this data set: Physiologic parameters (body weight, rectal temperature, mean arterial blood pressure) in rabbit model of spinal cord ischemia. The format is in vivo, New Zealand White rabbits. How it is done:
Twenty-six male New Zealand White rabbits weighting 2.2 to 3.0 kg were used in this experiment. Spinal cord ischemia was induced by occluding the abdominal aorta with […] for 20 minutes just distal to the renal arteries. Surgical preparation was conducted according to the method described in the literature, Terada H. et. al., J. Thorac. Cardiovasc. Surg. 2001; 122: 979-85. A 24-gauge venous catheter was placed in the marginal ear vein for drug administration. The rabbits were anesthetized with intravenous sodium pentobarbital (25 mg/kg) and allowed to breathe spontaneously. Lidocaine (0.5%) was administered at the site of the skin incision as local anesthesia. The left common carotid artery was cannulated with a 24-gauge catheter for monitoring the arterial pressure. Core body temperature was continuously monitored with a rectal probe and was maintained at 38.5° C. with the aid of heating lamp. The infrarenal abdominal aorta was exposed through a transperitoneal approach. After systemic heparinization (200 U/kg), spinal cord ischemia was induced by occluding the abdominal aorta with […] for 20 minutes just distal to the renal arteries and just above the aortic bifurcation. Then, the […] released, and the flank was closed. […] The rabbits were assigned randomly to 1 of the 4 groups and subjected to the treatment of (1) above in the following manner. […]

Turning to `Cc1cc(-c2ccc(F)cc2)cc(OCCCCCN2CCCCC2)n1.Cl` [NS-7, 4-(4-Fluorophenyl)-2-methyl-6-(5-piperidinopentyloxy)pyridine hydrochloride], the Weight (Group A: NS-7 1 mg/kg i.v. 15 min before aortic occlusion) is listed as 2.6 ± 0.2 kg and the Weight (Group B: NS-7 1 mg/kg i.v. at the onset of reperfusion) is on record as 2.5 ± 0.2 kg.
